Source: PubChem BioAssay AID686937 (Drosophila RNAi Screening Center, 2013)
The deposit covers about 23,000 reagents; this is a random part of those with a known target gene and a result. 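Reduced-secretion tags in replicate 1 do not always agree with the z-scores; no criterion for assigning the tags was given.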 A plus sign joins genes that one reagent is predicted to hit. The record does not give: the amount of reagent.

Aim: 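Genes whose loss weakens secretory pathway function in fly cells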 (primary screen)
Cell system: Drosophila S2 cells expressing secreted horseradish peroxidase
Reagents: long dsRNA against Drosophila genes
Duration: about 5.5 days (5 days dsRNA, then 12 h reporter induction)
Challenge: reporter expression induced after 5 days of dsRNA, read 12 h later; inducer not stated
Measurement: 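After 5 days of dsRNA and 12 h of reporter induction, medium peroxidase read by chemiluminescence and scored as per-plate z-score; higher values mean more reporter released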
Direction: z-score: higher = more reporter secreted into medium

Gene	DRSC id	z-score, replicate 1	z-score, replicate 2	z-score, replicate 3	z-score, replicate 4	phenotype, replicate 1
Etl1	DRSC02911	0.39	0.34			
CG32374	DRSC10986	0.14	0.29			
CG13898	DRSC08368	0.43	0.28			
CG11300	DRSC04104	0.18	0.43			
dsx	DRSC12649	0.11	-0.19			
dsx	DRSC16934	0.51	0.48	0.71	0.18	
dsx	DRSC21495	0.22	-0.62			
CG18628	DRSC10328	0.46	0.67			
Sf3b6	DRSC09972	-0.24	-0.21			
CG32022	DRSC09678	0.16	0.22			
CG5577	DRSC10519	0.27	0.26			
bip1	DRSC11327	0.48	0.32			
Galphao	DRSC07430	-7.3	0.35			reduced secretion
Dci	DRSC08360	0.72	0.4			
casp	DRSC07164	-0.05	0.13			
CG31233	DRSC15888	0.22	0.37			
CG16863	DRSC01892	-0.08	-0.12			
Adgf-B	DRSC10568	0.15	0.22			
mth	DRSC08725	0.33	0.08			
Pus10	DRSC00629	0.33	0.36			
Obp47a	DRSC06255	-0.03	0.41			
Tango10	DRSC19807	-4.5	-3.59			reduced secretion
CG10185	DRSC14205	0.21	-0.38			
Gr77a	DRSC11446	0.7	0.27			
CG14079	DRSC10083	0.15	0.17			
ImpL2	DRSC08666	0.76	0.54			
CG6296	DRSC16013	0.24	0.31			
Elp2	DRSC06095	0.29	0.46			
Uggt	DRSC11315	0.17	0.08			
ND-B12	DRSC04060	0.08	0.35			
CG18131	DRSC00517	-0.28	-0.11			
mtd	DRSC12131	0.5	0.33			
mtd	DRSC12380	0.58	0.39			
mtd	DRSC12381	0.38	0.46			
CG1774	DRSC15258	0	0.2			
Arpc5	DRSC00730	-1.03	-1.44			

Looked up above:
Under “z-score, replicate 2”, CG32374 [DRSC10986] is entered as 0.29
Entry for Adgf-B [DRSC10568] under “z-score, replicate 2”: 0.22
Value for Dci [DRSC08360] under “z-score, replicate 1”: 0.72
Result for CG1774 [DRSC15258] in “z-score, replicate 1”: 0
Under “z-score, replicate 1”, Elp2 [DRSC06095] shows 0.29
CG13898 [DRSC08368], z-score, replicate 1 → 0.43

More results follow:
Gene	DRSC id	z-score, replicate 1	z-score, replicate 2	z-score, replicate 3	z-score, replicate 4	phenotype, replicate 1
PGRP-SB1	DRSC11090	0.13	0.17			
lolal	DRSC06948	0.47	0.32			
hbt	DRSC01310	0.01	0.07			
hbt	DRSC02549	0.27	0.32			
dpr15	DRSC12891	0.53	0.3			
dpr15	DRSC14187	0.36	-0.05			
dpr15	DRSC14188	0.22	0.23			
Or22a	DRSC00764	-0.13	-0.75			
CG13405	DRSC08310	0.21	0.18			
CG11980	DRSC14456	0.34	0.28			
Gapvd1	DRSC19752	0	-0.15			
hpRNA:CR18854 + IP3K1	DRSC02218	0.51	0.48			
Cp7Fa	DRSC18032	0.25	0.65			
Cp7Fa	DRSC18033	0.21	0.28			
CG10343	DRSC02041	0.41	0.25			
Cht6	DRSC18001	0.33	0.5			
Cht6	DRSC18002	-0.56	-1.05			
Cht6	DRSC18253	0.37	-5.97			
AnxB10	DRSC20677	0.3	0.16			
lsn	DRSC16081	-0.04	0.13			
Cyp313b1	DRSC16629	0.36	0.27			
tgo	DRSC17077	0.29	0.45			
CR31054	DRSC22134	-0.02	0.73			
mRpS7	DRSC02814	0.11	0.12			
CG16815	DRSC02521	0.23	0.43			
Osbp	DRSC16779	0.56	0.46			
CG9356	DRSC16476	0.23	0.22			
SmD3	DRSC07553	-2.34	-3.44			reduced secretion
CG31388	DRSC15254	0.4	0.51			
CG42552 (retired record)	DRSC11512	-1.27	0.22			
l(2)03659	DRSC07269	0.27	0.31			
l(2)03659	DRSC07638	0.37	0.17			
Gr36b	DRSC21637	-0.64	-0.21			
Prosbeta2	DRSC11257	-5.66	-4.93			reduced secretion
scrib	DRSC13774	0.24	-0.42			
scrib	DRSC13775	-0.16	0.35			
scrib	DRSC15809	0.34	0.52			
scrib	DRSC17051	0.27	0.4			
CG33271	DRSC10583	-1.5	-2.44			reduced secretion
Pfdn1	DRSC02325	0.26	0.12			
CG32643	DRSC18962	0.33	0.12			
Polr2H	DRSC11642	-3.37	-4.41			reduced secretion
Nopp140	DRSC11872	-0.01	0.03			
Ubx	DRSC16891	0.22	0.46	0.5	0.29	
CG14561	DRSC11722	0.35	0.38			
CG34302	DRSC12751	0.28	0.02			
